{
  "source": "ChEMBL document CHEMBL3526118",
  "about": "“Combination of GSH trapping and time-dependent inhibition assays as a predictive method of drugs generating highly reactive metabolites” (Drug Metab Dispos, 2011)",
  "assay": "Intrinsic clearance for reactive metabolites formation assessed as summation of [3H]GSH adduct formation rate-based reactive metabolites formation and cytochrome P450 (unknown origin) inactivation rate-based reactive metabolites formation",
  "conditions": "human",
  "data": [
    {"smiles": "COc1cc2c(cc1OC)C(=O)C(CC1CCN(Cc3ccccc3)CC1)C2", "note": "(stereo unspecified) [DONEPEZIL]", "values": [
      {"measurement": "clearance", "value": 0.001, "unit": "µL/min/mg"}
    ]}
  ]
}
